Patent US20220324977A1 (BEIJING SINOGENE BIOTECHNOLOGY, published 2022)
Positions count from the first letter of the chain named. Results are given in words; binding and its absence hold for the method and conditions named. Some results given as binding are weak or reduced against the parent protein; the word gives no strength. Values belong to the binder of their own block, whether it stands above or below them.

Experiments:
[1] = target: canine PD-1 protein amino acids 25-168 with His tag (canine); test: ELISA on PD-1 His
[2] = target: canine PD-1 protein amino acids 25-168 with His tag (canine); test: Octet BLI on PD-1 His
[3] = target: PD1 on the surface of T cells (canine PBMC stimulated with ConA) (canine); test: flow cytometry, FIG. 14
[4] = target: PD1 on the surface of T cells (canine PBMC stimulated with ConA) (canine); test: flow cytometry on ConA-stimulated canine PBMC

- binding [1]: binds
- binding [2]: binds
B1: PD-1 A-M11 (antibody, V domains shown)
VH: EVQLQQSGAEVVKPGASVKLSCTASGFNIKDTYMHWVKQRPEQGLEWIGRIDPAIGNPKYDPKFQGRATITADTSSNTAYLQLSSLTSEDTAVYYCASGFYAMDCWGQGTSVTVSS
VL: QIVLTQSPAIMSASPGEKVTMTCSASSSITYMFWYQQKPGSSPRLWIYDTSNLVSGVPARFSGSKSGTSYSLTITSMEAEDAATYYCQQYSGYPSTFGSGTKLEIK
notes: Mouse IgG1 kappa, hybridoma supernatant; The VL is therefore uncertain; also called 9B04

- binding [3]: binds
- binding [4]: binds
B2: caninized monoclonal antibody C11 (antibody, V domains shown)
VH: B1 VH
VL: QIVLTQSPAIMSASPGEKVTMTCSASSSITYMFWYQQKPGSSPRLWIYDTSNLVSGVPARFSGSKSGTSYSLTITSMEAEDAATYYCQQYSGYPSTFGSGTKLEIKR
notes: Variable domains as for M11; also called C11(37.40); 37.40

- binding [3]: binds
- binding [4]: binds
B3: caninized monoclonal antibody C3 (antibody, V domains shown)
VH: EVRLQQSGAELVKPGASVKLSCTASGFNIKDTYLHWLKERPEQGLEWIGRIDPAIGNTRYDPKFQVKATITADTSSNTAYLQLSSLTSEDSAVYYCARGFYGMDYWGQGTSVTVSS
VL: B2 VL with I29V, T30S, K65R, T75S, S95Y, S99G
notes: Variable domains as for M3; also called C3(36.39); 36.39
